Assay results: the RNAGym collection of RNA variant scans (doi:10.1126/science.aae0568)
This sample is rich in variants without activity.

B1: tRNA (parent)
chain: GUUCCGUUGGCGUAAUGGUAACGCGUCUCCCUCCUAAGGAGAAGACUGCGGGUUCGAGUCCCGUACGGAACG

Variants of: B1
Experiment: yeast fitness relative to wild type (ratio to wild type); higher = fitter; tRNA-Arg(CCU), competitive growth, 37 C, YPD
Procedure, shortened: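 A pool of Saccharomyces cerevisiae strains, each with a tRNA-Arg(CCU) gene variant at the native genomic locus, was competed in YPD at 37°C for 24 hours across six parallel replicates. The variants had been chemically synthesised at a 3% per-site mutation rate over 69 sites, and gene amplicons before and after competition were read by 100-nucleotide paired-end sequencing. Darwinian fitness relative to wild type rested on changes in genotype frequencies. Genotypes required ≥ 100 starting reads, and estimates < 0.5 were set to 0.5.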

Variant	yeast fitness
GUUCCGGUGGCGUAAUGGUAACGCGACUCCCUCCUAAGGAGAAGACUCCGGGUUCGAGUCCCGUACGGAACG [U7G U26A G48C]	≤ 0.5
GUUCCGUUGGCGUACUGGUAACGCGUCUCCUUCCUAAGGAGAAGACUGCGGGUUCGAGUCCCGUACGCAACG [A15C C31U G68C]	≤ 0.5
GUUCAGUUGGCGUGAUGGUAACGAGUCUCCCUCCUAAGGAGAAGACUGCGGGUUCGAGUCCCGUACGGUACG [C5A A14G C24A A69U]	≤ 0.5
GUUCGGAUGGUGUAAUGGUAACGCGUCUCCCUCCUCAAGAGAACACUGCGGGUUCGAGUCCCGUACGGAACG [C5G U7A C11U A36C G38A G44C]	0.589
GUUCCGUUGGCGUAAUGGUAACGCGUCUCCCUCCUAAGGGGCAGACUGCGGGUUUGAGUACCGUACGGAACG [A40G A42C C55U C60A]	≤ 0.5
GUUCCGUUGGCGUACUGCUAACGCGUCUCCCUCCUAAGGAGCAGACUGCGGGUUUGAGUCCCGUACGGAACG [A15C G18C A42C C55U]	≤ 0.5
GUUCCGUUGGCGUAGUGGUAACGCGUGUCCCUCCUAAGGAGCAGACUGCGGGUUCGAAUCCCGUACGCAACG [A15G C27G A42C G58A G68C]	≤ 0.5
GUUCCGAUGGAGUAAUGGUAACGCGUGUCCCUCCUAAGGAGAAGACUGCGGGUUCGAGUCCCGUACGGAACG [U7A C11A C27G]	≤ 0.5
GUUCCGUUGGCGUAAUGGCAUCGCGUCUCCCUCCUAAGGAGAAGACUGCGGGUUUGAGUCCCGUACGGAACG [U19C A21U C55U]	≤ 0.5
GUUCCGUUGGCGUAAUGCUAACGCGUCUCCCUCCUAAGGAGACGACUGCGGGUUUGAGUCCCGUACGGAACG [G18C A43C C55U]	≤ 0.5
GUUCCGUUGGCGUAAUGGUAACGCGUCUACCUCCUCAGGAGAAGACUGCGGGUUCAAGUCCCGUACGAAACG [C29A A36C G56A G68A]	≤ 0.5
GUUCAGUUGGGGUAAUGGUAACGCGUCUCCCUCCUAAAGAGAAGACUGCCGGUUCGAGUCCCGUACGGAACG [C5A C11G G38A G50C]	≤ 0.5
GUCCCGUUGGGGUAAUGGUAACGCGUCUCCUUACUAAGGAGAAGACUGCGGGUUCGAGUCCCGUAUGGAACG [U3C C11G C31U C33A C66U]	≤ 0.5
GUUCCGUAGGCGUAAUGGUAACGCGUCUCCCUGCUAAGGAGAAGACUGCGGGUUCGCGUCCCGUACGGAACG [U8A C33G A57C]	≤ 0.5
GUACCGUUAGCGUAAUGGAAACGCGUCUCCCUCCUAAGGAGAACACUGCGGGUUCGAGUCCCGUACGCAACG [U3A G9A U19A G44C G68C]	≤ 0.5
GUUCCGUUGGCGUACAGGUAGCGCGACUCCCUCCUAAGGAGAAGACUGCGGGUUCGAGUCACGUACGGUACG [A15C U16A A21G U26A C61A A69U]	≤ 0.5
GUUCCAUUGGCGUAAUGGUAAGGCGUCUCCCUCCUAAGGAGAAGACAGCGGGUUUGAGUCCCGUCCGGAACG [G6A C22G U47A C55U A65C]	≤ 0.5
GUUCAGUUGGCGUAAUGGUAACGCGUCUCCCUCCUAAGGAGAAGACCGCGGGUUCGAGUCCCGUACGGAGCG [C5A U47C A70G]	0.705
GUUUCGUUGGCGUAAUGGUAACGCGUCUCCCUUCUAAGGAGAAGACUGCGGGUUCGAGUCCCGUCCGAAUCG [C4U C33U A65C G68A A70U]	≤ 0.5

Variant	yeast fitness
GUUCCGUUGGCGUGAUGGUAACGCGUCUCCCUCCUAAGGCGAAGACUGCGGGUUCGAGUCCGGUACGGAACG [A14G A40C C62G]	≤ 0.5
GUUCCGUUGGCGUAGUGGUAACACGUGUCCCUCCUAAGGAGACGACUGCGGGUUCGAGUCCCGUACGGAACG [A15G G23A C27G A43C]	≤ 0.5
GUUCCGUUGGCGUAAUGGUAAGGCGUCUCCCUCCUAAGGAGACGAAUGCGGGUUCGAGUCGCGUACGGACCG [C22G A43C C46A C61G A70C]	≤ 0.5
GUUCCGUUGGCGUAAUAGUAACGCGUCUCUCUCCUAAGGUGAAGACUGCGGGUUCGUGUCCCGUACGGAACG [G17A C30U A40U A57U]	≤ 0.5
GUUCCGUUGGCGUAUUGGUAACGCGUCUCCCUCAUAAGCCGAAGACUGCGGGUUCCAGUCCCGUACGGAACG [A15U C34A G39C A40C G56C]	≤ 0.5
GUUCCGUUCGCGUAAUGGUAACGCGUCUCCCUCCUAAGAGGAAGACUGGGGGUUCGAGUCCCGUACGGACCG [G9C G39A A40G C49G A70C]	≤ 0.5
GUUCCGUUGGCGUAAUGGUAACGCGUCUCCGUCCUAAGGAGAAGACUGGGGGUUCGAGUCCCGCACGGAACG [C31G C49G U64C]	≤ 0.5
GUUCCGUUGGCGUAAUGGUAACGCGUCUCGCUCCUAUGGAGAAGACUGCGGGUUCGAGUCUCGUACGGAACG [C30G A37U C61U]	≤ 0.5
GUUCCGUUGGCGUAAUAGAAACACGUCUCCUUCAUAAGGAGAAGACUCCGGGUUCGAGUCCUGUACGGAACG [G17A U19A G23A C31U C34A G48C C62U]	≤ 0.5
GUUUCGUUGGCGUUAUGGUAACGCGUCUCCCUCCUUAGGAGAAGACUGCGGGUUCGAGUCCCGUUCGGAACG [C4U A14U A36U A65U]	≤ 0.5
GUUCCGUUGGCGUGAUGGUCACGCGUCUCUCUCCUAAGGAGAAGACUGCGGGUUCGAGUCCCGUAUGGAACG [A14G A20C C30U C66U]	≤ 0.5
GUUCCGUAGGCGUAAUGGUAAUGAGCCUCCCUCCUAAGCAGAAGACUGCGGGUUCGAGUCCCGUACGGAACG [U8A C22U C24A U26C G39C]	≤ 0.5
GUUCGCUUGGCGUAGUGGUAACGCGUCUCCCUCCUAAGGAGAAGACUGCGGGUUCGAGUCCUGUACGGAACG [C5G G6C A15G C62U]	≤ 0.5
GUUCCGUUGGCGUAAUGGUAACGGGUCUCCCUCCUAUGGAGAAGACUGCGGGUUCAAGUCCCGUCCGGAACG [C24G A37U G56A A65C]	≤ 0.5
GUUCCGUUGGCGUAAUGGUAACGUGUCUCCCUCCUAAGGAGAAGACUGCGCGUUCGAGUCCCGUACGGAACG [C24U G51C]	0.624
GUUUCGUUGGCGUACAGGUAACGCGUCUCGCUCCUAAAGAGAAGACUGCGGGUUCGAGUCUCGUACGGCACG [C4U A15C U16A C30G G38A C61U A69C]	≤ 0.5
GCUCCGUUGGCGUCAUGGUAACGCGUCUCCCUCCCAAGGAGAAGAAUGCGGGUUCGAGUCCCGUACGGAACG [U2C A14C U35C C46A]	≤ 0.5
GUUCCGUUGGCGUAAUGCUAACGCGUCUCCCUCCUAAGGAGAAGACUGUGGGUUCGACUCCGGUACGGCACG [G18C C49U G58C C62G A69C]	≤ 0.5
GUUCCGUUGGCGUAAUGGUGACGCGUCUACCUCCUAAGGAGAAGACCGCCGGUUCGCGUCCCGUACGGAACG [A20G C29A U47C G50C A57C]	≤ 0.5
